# Where “and” joins values, the source holds several entries; their conditions need not be identical. Equal values may be shown once. About 4,500 (1.3%) of roughly 340,000 compounds were called active. The inconclusive results got no clear call from the source; some entries with a clear call stand among them for comparison. Calls follow the shape of the dose curve; as a rule, active = well fitted inhibition curve with a large enough effect; inconclusive = small, poorly fitted or top-dose-only effect, or another doubt; inactive = no such curve, though single readings can be large or run the other way. A potency beside an inconclusive call is a rough fit, not a confirmed value.
# Biological target: DNA polymerase beta (Homo sapiens) (UniProt P06746)
# Experiment: qHTS Assay for Inhibitors of DNA Polymerase Beta
# Conditions: Pol beta primer extension/strand displacement, fluorescence kinetic; activity change, negative = inhibition: at 114 µM (top of the series)
# Summary of the method: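 Curves were derived by four-parameter Hill fits of normalized qHTS data. The kinetic fluorescent primer-extension read was taken at 0 and 10 min after 50 nM substrate, following a 15 min room-temperature preincubation of 10 nM enzyme with compounds.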
# % is scaled to controls: 0 for no effect and ±100 for the full control effect; potency is read from the fitted curve at half-maximal effect.
Compound,Potency,"activity change, negative = inhibition"
O=C(CSc1ccsc1[N+](=O)[O-])N1CCCCCC1,"inconclusive: 15.8 µM [inhibitor, full curve]",–
COc1ccc(Br)cc1C(=O)Nc1ccccc1-c1ccccc1,"inconclusive: 89.1 µM [inhibitor, single point]",–
O=C(Nc1nccs1)c1ccc(-c2ccc([N+](=O)[O-])cc2)o1,"inconclusive: 0.141 µM [inhibitor, full curve]",–
O=C(N/N=C/c1cccc(NC(=O)c2ccc(Cl)cc2)c1)c1ccc(O)cc1,–,inconclusive: -108% [inhibitor]
COc1cc(-c2cc(N)n(S(=O)(=O)c3ccc(F)cc3)n2)cc(OC)c1OC,"inconclusive: 79.4 µM [inhibitor, partial curve]",–
S=C(Nc1ccc(Cl)c(Cl)c1)N1CCCC1,inactive,–
CCc1ccc(NC(=O)CS(=O)CC(=O)Nc2ccc(-n3cnnn3)c(C)c2)cc1 (stereo unspecified),active: 25.1 µM,–
O=c1nccc(N/N=C/c2ccccc2O)[nH]1,inactive,–
CN(c1ccccc1)S(=O)(=O)c1nnc(NC(=O)COc2ccccc2F)s1,"inconclusive: 39.8 µM [inhibitor, full curve]",–
CCN(CC)CCCN1C=C2C(=O)C(C)(OC(=O)C3CCCC3)C(=O)C(c3ccccc3)=C2C=C1CCCC(=O)OC (stereo unspecified),"inconclusive: 17.8 µM [inhibitor, full curve]",–
CCOC(=O)c1ccc(N2C(=O)c3[nH]nc(-c4ccc(C)cc4)c3C2c2cccc(F)c2)cc1 (stereo unspecified),inactive,–
O=C(OCc1ccc([N+](=O)[O-])cc1)c1ccc2ccccc2n1,–,inconclusive: -30.5% [inhibitor]
O=c1c2c3c(sc2[nH]c(=S)n1Cc1ccco1)CCC3,active: 8.91 µM,–
Cc1ccnc2c(N3C(=O)C4C5c6ccccc6C(c6ccccc65)C4C3=O)cccc12 (stereo unspecified),"inconclusive: 5.01 µM [inhibitor, partial curve]",–
CCc1ccc(C(=O)c2cn(CC(=O)Nc3cccc(OC)c3)c3ccc(OC)cc3c2=O)cc1,active: 8.91 µM,–
CN(C)S(=O)(=O)N(CC(=O)NCCSCc1ccccc1)c1ccccc1,active: 12.6 µM and active: 35.5 µM,–
CC(C)c1nc(SCC(=O)Nc2c[nH]c(=O)[nH]c2=O)c2cnn(-c3ccccc3)c2n1,"inconclusive: 14.1 µM [inhibitor, partial curve, poor fit]",–
O=C(N/N=C/c1c(O)n(-c2ccccc2Cl)c(=O)c2ccccc12)c1cccnc1,"inconclusive: 35.5 µM [inhibitor, full curve]",–
CCOC(=O)Cc1csc(NC(=O)COc2ccc3c(C)cc(=O)oc3c2)n1,active: 44.7 µM,–
Cc1ccc(C)c(NC(=O)CN2CCCN(Cc3cccc(Cl)c3)S2(=O)=O)c1,"inconclusive: 39.8 µM [inhibitor, single point]",–
COC(=O)c1ccc(OCC2c3cc(OC)c(OC)cc3CCN2C(=O)Cc2ccc(OC)cc2)cc1 (stereo unspecified),"inconclusive: 89.1 µM [inhibitor, single point]",–
O=C(c1cc2ccccc2oc1=O)N1CCN(c2ccc(N3CCOCC3)nn2)CC1,"inconclusive: 100 µM [inhibitor, single point]",–
CCn1c(=O)cc(SCC(=O)NCc2ccc(F)cc2Cl)c2ccccc21,inactive,–

# Reformatted tab-delimited: entries from further up.
Compound	Potency	activity change, negative = inhibition
Cc1ccc(C)c(NC(=O)CN2CCCN(Cc3cccc(Cl)c3)S2(=O)=O)c1	inconclusive: 39.8 µM [inhibitor, single point]	–
COC(=O)c1ccc(OCC2c3cc(OC)c(OC)cc3CCN2C(=O)Cc2ccc(OC)cc2)cc1 (stereo unspecified)	inconclusive: 89.1 µM [inhibitor, single point]	–
O=C(c1cc2ccccc2oc1=O)N1CCN(c2ccc(N3CCOCC3)nn2)CC1	inconclusive: 100 µM [inhibitor, single point]	–
CCn1c(=O)cc(SCC(=O)NCc2ccc(F)cc2Cl)c2ccccc21	inactive	–

# (more compounds)

Compound,Potency,"activity change, negative = inhibition"
CCc1nnc(NC(=O)CSC(=S)N2CCOCC2)s1,"inconclusive: 63.1 µM [inhibitor, single point]",–
Cc1cc2cc(CNC(=O)Cc3ccc([N+](=O)[O-])cc3)ccc2[nH]1,"inconclusive: 89.1 µM [inhibitor, single point]",–
CC(C)C1N(c2ccccc2)C(N)=C(C#N)C1(C#N)C#N (stereo unspecified),"inconclusive: 0.251 µM [inhibitor, full curve, poor fit]",–
O=c1cc(CN2CCN(S(=O)(=O)c3ccc4c(c3)OCCO4)CC2)c2ccc(O)cc2o1,active: 35.5 µM,–
Clc1ccc(OCc2nn3c(-c4ccco4)nnc3s2)c(Cl)c1,active: 7.94 µM,–
Cc1ccc(C(=O)NNC(=O)CSc2nnc3c(n2)[nH]c2ccc(F)cc23)cc1,active: 5.01 µM,–
O=C(/C=C/c1ccc(Br)cc1)c1ccc(NC(=O)c2ccco2)cc1,active: 7.08 µM,–
O=C(Nc1cccc(C2OCCCO2)c1)c1cccs1,inactive,–
CCCCNc1nc(=S)[nH]c2cc(OC)c(OC)cc12,active: 89.1 µM,–
O=C(CCc1nnc2ccc(NCc3ccco3)nn12)Nc1cc(F)ccc1F,–,inconclusive: -53.4% [inhibitor]
Cc1nnc(NC(=O)c2oc3ccccc3c2C)s1,"inconclusive: 0.199 µM [inhibitor, full curve, poor fit]",–
O=C(/C=C\Nc1ccc2c(c1)OCO2)c1ccc(Cl)s1,inactive,–
COc1cc2oc(-c3ccc(O)cc3)cc(=O)c2c(OC)c1O,"inconclusive: 31.6 µM [inhibitor, full curve]",–
COc1cc(CNc2ccc3c(c2)CCC3)cc(OC)c1O,"inconclusive: 89.1 µM [inhibitor, single point]",–
COc1ccccc1NC(=O)CSc1nnc(-c2cccc(Cl)c2)o1,"inconclusive: 89.1 µM [inhibitor, single point]",–
C=CCn1c(SCC(=O)Nc2sc3c(c2C#N)CCC3)nnc1C1COc2ccccc2O1 (stereo unspecified),"inconclusive: 15.8 µM [inhibitor, single point]",–
COc1ccccc1Nc1c2c(nc3ccc(NC(=O)/C=C/c4cccc(OC)c4OC)cc13)CCCC2,inactive,–
CC1S/C(=N/N=C/c2cccc([N+](=O)[O-])c2)NC1=O (stereo unspecified),"inconclusive: 79.4 µM [inhibitor, single point]",–
COc1ccc2nc(N(Cc3cccnc3)C(=O)CCc3ccccc3)sc2c1,"inconclusive: 89.1 µM [inhibitor, single point]",–
COc1ccccc1Nc1nc(-c2cccnc2)cs1,inactive,–
COc1ccc(Cl)cc1S(=O)(=O)NCCCn1ccnc1,inactive,–
Cc1ccc(C(=O)OC(C)C(=O)c2cc(C)c(C)cc2C)o1 (stereo unspecified),"inconclusive: 2.82 µM [inhibitor, partial curve]",–

# From PubChem BioAssay AID485314 (National Center for Advancing Translational Sciences (NCATS), 2010)
